Reference: patent publication US20240285688A1, “Extensive whey protein hydrolysate with tolerogenic peptides” (N.V. Nutricia, priority 2019, published 2024)
Some of these results come from one statement about several compounds together. Part of at least one peptide drawing is inferred or uncertain, most often the ends. Some compounds share one range, which may span the group rather than tell each member. Peptide text beside a SMILES is read from it.

Test: Presence of tolerogenic betalactoglobulin peptides in feed, retentate and permeate of membrane ultrafiltration (micro LC-MS ESI MS2)
Type: physicochemical
Settings: Example 3: urea (8 M) added after hydrolysis and before ultrafiltration
Procedure: In a Multifors reactor (Infors HT) 500 gram of whey protein powder (WPC83, Arla Foods, with about 80% whey protein) was dissolved in water at a final concentration of about 4 wt % at a temperature of about 75° C., giving a protein concentration of about 3.2 wt %. After dissolving the mixture was cooled to 58° C. and the pH was adjusted to neutral (pH 7-8). Proteolytic enzymes were added (Trypsin, Neova Technologies Inc) to a concentration of 33 mg/100 g solution and hydrolysis took place for about 105 min under continuous stirring. During hydrolysis the pH was kept constant. After hydrolysis the mixture was quickly cooled to 4° C.
Next the mixture of whey protein hydrolysate and proteolytic enzymes was filtrated. 200 ml of the mixture (the feed) was filtrated for 20 minutes on a MMS Triple System membrane filtration unit (MMS AG Membrane Systems) provided with an ultrafiltration membrane from Koch (Koch: HFK-131, a flat sheet polyethersulfone ultrafiltration membrane with a molecular weight cut off of 10 kDa) under a pressure of 8 bars. A one-layer filtration setup was used and the retentate was circulated during filtration. Each membrane was used only once to promote reproducibility. The filtration cooling system was set to 15° C. The permeate was weighted, MMS filtration software was used for the registering of the permeate throughput. Samples were taken of the mixture before membrane filtration (the feed), and of the permeate and retentate after the membrane filtration step. About 93% of permeate (wt % of total feed) was produced comprising about 85 wt % of peptides (wt % of the peptides in the feed). Samples were stored at −50° C. for further analysis.
The presence of tolerogenic betalactoglobulin peptides in the samples was analyzed according to Gouw et al., 2018, Clin. Exp. Allergy 48:[…], with the modification that instead of nanoLC-ESI MS2, micro LC-MS ESI MS2 was used. The presence of 5 specific peptides was tested (region overlapping with the 13-48 AA acid region of betalactoglobulin in bold):
The process of example 1 was repeated. The only difference was that Citrem (Grinsted® Citrem, DuPont) was added at an amount of about 3.6 gram before the pH adjustment and the addition of the proteolytic enzymes. […]
The process of example 2a was repeated, the only difference being that instead of the emulsifier, 51 gram of urea (source Merck) was dissolved per 100 g water (8 M) and added after the hydrolysis step and before ultrafiltration. […] All peptides were detected in the retentate and feed, and peptides 1, 3, 4 and 5 of example 1 (i.e. SEQ ID NOs 66, 68, 69 and 70 with X=L) were detected in the permeate, in an amount of about 1-10 wt. % of the concentration of these peptides in the feed. […]

Amount in the permeate relative to the concentration of these peptides in the feed, 1-10 wt. %:
CC[C@H](C)[C@H](NC(=O)[C@H](CC(=O)O)NC(=O)[C@H](CC(C)C)NC(=O)CNC(=O)[C@H](CCCCN)NC(=O)[C@H](CCSC)NC(=O)[C@@H](NC(=O)[C@H](CCC(N)=O)NC(=O)[C@@H](NC(=O)[C@@H](NC(=O)[C@@H](NC(=O)[C@@H](N)CC(C)C)[C@@H](C)CC)C(C)C)[C@@H](C)O)[C@@H](C)O)C(=O)N[C@@H](CCC(N)=O)C(=O)N[C@@H](CCCCN)C(=O)N[C@H](C(=O)N[C@@H](C)C(=O)NCC(=O)N[C@H](C(=O)N[C@@H](Cc1c[nH]c2ccccc12)C(=O)N[C@@H](Cc1ccc(O)cc1)C(=O)N[C@@H](CO)C(=O)N[C@@H](CC(C)C)C(=O)N[C@@H](C)C(=O)N[C@@H](CCSC)C(=O)N[C@@H](C)C(=O)N[C@@H](C)C(=O)N[C@@H](CO)C(=O)O)[C@@H](C)O)C(C)C [Peptide 1] (H-LIVTQTMKGLDIQKVAGTWYSLAMAAS-OH; N-terminus and C-terminus assumed)
CC[C@H](C)[C@H](NC(=O)[C@H](CC(=O)O)NC(=O)[C@H](CC(C)C)NC(=O)CNC(=O)[C@H](CCCCN)NC(=O)[C@H](CCSC)NC(=O)[C@@H](N)[C@@H](C)O)C(=O)N[C@@H](CCC(N)=O)C(=O)N[C@@H](CCCCN)C(=O)N[C@H](C(=O)N[C@@H](C)C(=O)NCC(=O)N[C@H](C(=O)N[C@@H](Cc1c[nH]c2ccccc12)C(=O)N[C@@H](Cc1ccc(O)cc1)C(=O)N[C@@H](CO)C(=O)N[C@@H](CC(C)C)C(=O)N[C@@H](C)C(=O)N[C@@H](CCSC)C(=O)N[C@@H](C)C(=O)N[C@@H](C)C(=O)N[C@@H](CO)C(=O)N[C@@H](CC(=O)O)C(=O)N[C@H](C(=O)N[C@@H](CO)C(=O)N[C@@H](CC(C)C)C(=O)N[C@@H](CC(C)C)C(=O)N[C@@H](CC(=O)O)C(=O)N[C@@H](C)C(=O)N[C@@H](CCC(N)=O)C(=O)O)[C@@H](C)CC)[C@@H](C)O)C(C)C [Peptide 3] (H-TMKGLDIQKVAGTWYSLAMAASDISLLDAQ-OH; N-terminus and C-terminus assumed)
CC[C@H](C)[C@H](NC(=O)[C@H](CC(=O)O)NC(=O)[C@H](CC(C)C)NC(=O)CNC(=O)[C@H](CCCCN)NC(=O)[C@H](CCSC)NC(=O)[C@@H](N)[C@@H](C)O)C(=O)N[C@@H](CCC(N)=O)C(=O)N[C@@H](CCCCN)C(=O)N[C@H](C(=O)N[C@@H](C)C(=O)NCC(=O)N[C@H](C(=O)N[C@@H](Cc1c[nH]c2ccccc12)C(=O)N[C@@H](Cc1ccc(O)cc1)C(=O)N[C@@H](CO)C(=O)N[C@@H](CC(C)C)C(=O)N[C@@H](C)C(=O)N[C@@H](CCSC)C(=O)N[C@@H](C)C(=O)N[C@@H](C)C(=O)N[C@@H](CO)C(=O)N[C@@H](CC(=O)O)C(=O)N[C@H](C(=O)N[C@@H](CO)C(=O)N[C@@H](CC(C)C)C(=O)N[C@@H](CC(C)C)C(=O)O)[C@@H](C)CC)[C@@H](C)O)C(C)C [Peptide 4] (H-TMKGLDIQKVAGTWYSLAMAASDISLL-OH; N-terminus and C-terminus assumed)
CC[C@H](C)[C@H](NC(=O)[C@H](CC(=O)O)NC(=O)[C@H](CC(C)C)NC(=O)CNC(=O)[C@H](CCCCN)NC(=O)[C@H](CCSC)NC(=O)[C@@H](NC(=O)[C@H](CCC(N)=O)NC(=O)[C@@H](NC(=O)[C@@H](NC(=O)[C@@H](NC(=O)[C@@H](N)CC(C)C)[C@@H](C)CC)C(C)C)[C@@H](C)O)[C@@H](C)O)C(=O)N[C@@H](CCC(N)=O)C(=O)N[C@@H](CCCCN)C(=O)N[C@H](C(=O)N[C@@H](C)C(=O)NCC(=O)N[C@H](C(=O)N[C@@H](Cc1c[nH]c2ccccc12)C(=O)N[C@@H](Cc1ccc(O)cc1)C(=O)N[C@@H](CO)C(=O)N[C@@H](CC(C)C)C(=O)N[C@@H](C)C(=O)N[C@@H](CCSC)C(=O)N[C@@H](C)C(=O)N[C@@H](C)C(=O)N[C@@H](CO)C(=O)N[C@@H](CC(=O)O)C(=O)N[C@H](C(=O)N[C@@H](CO)C(=O)N[C@@H](CC(C)C)C(=O)N[C@@H](CC(C)C)C(=O)O)[C@@H](C)CC)[C@@H](C)O)C(C)C [Peptide 5] (H-LIVTQTMKGLDIQKVAGTWYSLAMAASDISLL-OH; N-terminus and C-terminus assumed)
